Here are results for one compound from publication PMC3021545, “Insulin Reduces Neuronal Excitability by Turning on GABAA Channels that Generate Tonic Current” (PLoS ONE, 2011).

Each structure is given as a SMILES string.

This experiment concerns T1, insulin-induced high-affinity extrasynaptic GABAA channels (α5, γ2 containing; α5βγ2) of CA1 pyramidal neurons.
T1 construct: gene Gabra5
Particulars: intact CA1 neurons of insulin-incubated slices; -Vp = 40 mV; pH 7.25; 20-22 °C; 200 µM saclofen in pipette; agonist; Hill coefficient 1.0±0.2; subunits not determined in the single-channel test.

Take `NCCCC(=O)O` [GABA]: the 50% effective concentration (EC50) stood at 17 ± 4 pM.
